The source of these data is paper doi:10.1101/2023.04.26.538363 (bioRxiv, 2023).

By UniProt entry, the sequences of proteins in these tests, tags left out. Where a name states a change or a piece, a line headed by the entry shows the natural chain unless it says otherwise.
UniProt P08659, whole entry: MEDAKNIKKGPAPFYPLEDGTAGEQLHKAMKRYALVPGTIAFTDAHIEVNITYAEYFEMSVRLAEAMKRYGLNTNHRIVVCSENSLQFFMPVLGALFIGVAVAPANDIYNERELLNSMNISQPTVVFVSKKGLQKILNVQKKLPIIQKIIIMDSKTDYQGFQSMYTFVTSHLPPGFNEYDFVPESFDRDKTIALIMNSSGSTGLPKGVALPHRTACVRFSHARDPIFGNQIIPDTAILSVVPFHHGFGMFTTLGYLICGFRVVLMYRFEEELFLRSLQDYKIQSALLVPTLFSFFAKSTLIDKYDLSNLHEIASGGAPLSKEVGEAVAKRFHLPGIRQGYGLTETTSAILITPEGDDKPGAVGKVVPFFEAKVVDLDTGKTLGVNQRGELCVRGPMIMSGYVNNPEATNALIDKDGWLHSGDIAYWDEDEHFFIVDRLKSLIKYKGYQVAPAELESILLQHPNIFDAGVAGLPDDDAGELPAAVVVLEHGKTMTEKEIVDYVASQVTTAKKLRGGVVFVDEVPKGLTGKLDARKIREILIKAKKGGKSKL

Holding throughout (assay): sucrose density gradient centrifugation
For test [1], the target named is firefly luciferase, heat-denatured (firefly) [luciferase: P08659].
In test [2] the target is Cedecea neteri IbpA R93A mutant (Cedecea neteri).
In test [3] the target is Cedecea neteri IbpA, wild type (Cedecea neteri).

Substitutions are numbered along the chain they refer to. Names and notes keep the numbering of the source. Results are given in words; binding and its absence hold for the method and conditions named. Some binding calls cover weakened binding; strength is not graded here.

Consider “Cedecea neteri IbpA R93A mutant (from UniProt A0A089Q2Q3 1-137)”, for which the binding entry in test [1] and in test [2] was “binds” each time.

“Cedecea neteri IbpA, wild type (from UniProt A0A089Q2Q3 1-137)”: the binding result in test [3] and in test [1] was “binds” each time.

B1: Escherichia coli inclusion body-associated protein A, wild type (natural protein)
chain: MRNFDLSPLYRSAIGFDRLFNHLENNQSQSNGGYPPYNVELVDENHYRIAIAVAGFAESELEITAQDNLLVVKGAHADEQKERTYLYQGIAERNFERKFQLAENIHVRGANLVNGLLYIDLERVIPEAKKPRRIEIN
B1: in test [1], the binding result is on record as “binds”.

B2: Escherichia coli IbpA R93A mutant (natural protein)
chain: B1 chain with R93A
Consider B2, for which, in test [1], the binding result was “binds”.
